Experiment [1] concerns the target Cynomolgus/Rhesus CTLA-4 (cynomolgus/rhesus). The experiment in a line: ELISA, antibody coated, Cynomolgus/Rhesus CTLA-4 titrated. (An ELISA detects its analyte on a solid surface through an enzyme-linked reagent.)
Experiment [2] shares this target. Nature of the experiment: ELISA similar to Example 5.

Consider one molecule from patent US20170226211A1.

These are yes or no findings as the source states them, for the method shown. A result given as binding can be weak or reduced; the word gives no strength.

B1: anti-CTLA-4 antibody clone 2C8, human IgG1 (antibody, V domains shown)
VH: QVQLQQSGPGLVKPSQTLSLTCAISGDTVSSNTAAWNWIRQSPSRGLEWLGRTYYRSKWYSDYGLSVKSRMTINADTSKNQVSLHLNSVTPEDTAVYYCAREGSGGTLIYWGQGTLVTVSS
VL: DIQLTQSPSSVSASVGDRVTITCRATQGISSWLAWYQQKPGKAPKLLIYAASSLQSGVPSRFSGSGSGTEFTLTISSLQPEDFATYYCQQANTLPLFTFGPGTKVDIK
With B1, the binding entry in experiment [1] and in experiment [2] was “binds” throughout.
